Data from US20220259283A1, “SORCS2 CRYSTAL STRUCTURE AND USES THEREOF” (AARHUS UNIVERSITET, priority 2019, published 2022).
Not every detail of the peptide structures is certain; ends, links or a residue may be inferred. Peptide text beside a SMILES is read from it.

Chains of the proteins cited; added tags and fusions are not shown. Residues count along the entry.
UniProt Q96PQ0, 51-1076: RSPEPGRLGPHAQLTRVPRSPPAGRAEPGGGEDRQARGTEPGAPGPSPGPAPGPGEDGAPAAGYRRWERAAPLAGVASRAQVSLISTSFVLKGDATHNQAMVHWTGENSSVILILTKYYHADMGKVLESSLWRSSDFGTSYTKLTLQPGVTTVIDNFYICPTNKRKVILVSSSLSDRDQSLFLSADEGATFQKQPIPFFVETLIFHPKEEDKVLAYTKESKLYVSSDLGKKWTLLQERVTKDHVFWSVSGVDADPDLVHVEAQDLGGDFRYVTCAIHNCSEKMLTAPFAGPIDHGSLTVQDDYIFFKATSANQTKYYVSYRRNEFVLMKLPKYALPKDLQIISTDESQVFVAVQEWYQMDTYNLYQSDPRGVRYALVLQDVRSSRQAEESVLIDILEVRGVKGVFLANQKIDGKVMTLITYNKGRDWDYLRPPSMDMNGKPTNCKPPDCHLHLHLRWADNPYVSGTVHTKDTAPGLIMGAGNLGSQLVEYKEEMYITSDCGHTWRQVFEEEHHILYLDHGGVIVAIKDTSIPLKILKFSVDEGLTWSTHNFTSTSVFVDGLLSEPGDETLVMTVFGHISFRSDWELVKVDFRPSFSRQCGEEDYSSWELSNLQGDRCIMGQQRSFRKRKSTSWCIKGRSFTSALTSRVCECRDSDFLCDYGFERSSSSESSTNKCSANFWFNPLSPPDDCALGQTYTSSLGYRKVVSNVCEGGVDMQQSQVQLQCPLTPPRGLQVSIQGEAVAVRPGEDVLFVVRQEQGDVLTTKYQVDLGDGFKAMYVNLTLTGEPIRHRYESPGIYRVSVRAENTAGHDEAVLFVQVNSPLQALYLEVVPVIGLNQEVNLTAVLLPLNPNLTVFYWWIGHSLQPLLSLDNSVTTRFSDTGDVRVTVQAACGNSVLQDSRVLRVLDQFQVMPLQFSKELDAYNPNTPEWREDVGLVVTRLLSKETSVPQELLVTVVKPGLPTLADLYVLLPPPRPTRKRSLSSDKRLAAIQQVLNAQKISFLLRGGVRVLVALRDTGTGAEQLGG

Target: T1, hSorCS2:hPGRN interaction (Homo sapiens, UniProt Q96PQ0)
T1 construct: The cDNA encoding the extracellular domain of human SorCS2 and a C-terminal 6His-tag; made in house; host or cells: CHO-K1 cells for hSorCS2-6his
Assay: SPR inhibition experiment: hSorCS2 preincubated with PGRN-derived tetra peptide, injected over immobilized hPGRN-6his
Assay type: binding
Details: 100 nM hSorCS2 preincubated with 100 uM peptide (1000-fold molar excess), FIG. 7

CC(C)C[C@H](NC(=O)[C@H](CC(C)C)NC(=O)[C@H](CCC(N)=O)NC(=O)[C@@H](N)CCCNC(=N)N)C(=O)O [RQLL] (H-RQLL-OH; N-terminus and C-terminus assumed)
inhibition of the direct interaction between hSorCS2 and hPGRN: partially inhibit
